Measurements from “University of Dundee, Small-Polar-MMV Screening Library” (2021), ChEMBL document CHEMBL3988442.

Mtb glucose medium: 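Phenotypic screen: M. tuberculosis growth, glucose 7H9 medium, 3 days; the read-out is not stated. Compounds at 50 µM. Higher reads as more growth inhibition (inferred: compounds with an IC50 in retests scored well above the rest). Of about 69,000 compounds tested this way, about 760 (1.1%) reached 50% or more in at least one test.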
Mtb cholesterol medium: 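Phenotypic screen: M. tuberculosis growth, cholesterol and DPPC medium, 4 days; the read-out is not stated. Compounds at 50 µM. The record gives no direction; compounds that gave an IC50 in retests scored well above the rest, so higher reads as more growth inhibition. Size under these conditions: about 69,000 compounds, about 370 of them at 50% or above in at least one test.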

The filed quantity is “Percent Effect” (%). The record does not define 0% and 100%; most values in the screen are far below 50% and negative numbers occur (in some assays of this library far below -100). The compounds are a random part of those screened. Two or more numbers in one place are separate tests of the same structure; such repeats can differ widely.

For Fc1ccc(-c2nnc(CN3CCn4c(nnc4C4CC4)C3)o2)cc1 the result was Mtb glucose medium: -4.268%; Mtb cholesterol medium: -5.458%.
For CCn1cnnc1CNC(=O)c1cc(Cl)ccc1I the result was Mtb glucose medium: 3.405%; Mtb cholesterol medium: -1.273%.
For CNc1nc(C2CCCCN2C(=O)COC)nc2c1CN(C)CC2 (stereo unspecified) the result was Mtb glucose medium: 27.34%; Mtb cholesterol medium: 0.416%.
For CCN(CC)c1ncccc1CNC(=O)c1cnn(CC)c1 the result was Mtb glucose medium: 1.304% and 3.757%; Mtb cholesterol medium: 4.095%.
For O=C(c1cnc2ccc(F)cc2c1NCc1ccccn1)N1CCCC1 the result was Mtb glucose medium: -22.04% and -2.321%; Mtb cholesterol medium: -11.44%.
For CN1CCCN(C(=O)c2nc3c(o2)CN(C(=O)c2cccnc2)C3)CC1.O=C(O)C(F)(F)F.O=C(O)C(F)(F)F the result was Mtb glucose medium: -18.84% and 0.3019%; Mtb cholesterol medium: -4.8%.
For Cc1cccc(NC2CCN(C(=O)Nc3ccc(F)c(F)c3)CC2)n1 the result was Mtb glucose medium: 24.36% and 53.54%; Mtb cholesterol medium: 5.073%.
For CN(C)C(=O)c1n[nH]c2c1CN(CC1CCC1)C2.O=C(O)C(F)(F)F.O=C(O)C(F)(F)F the result was Mtb glucose medium: 8.409%; Mtb cholesterol medium: 12.3%.
For Cc1cc(N2CCC(N3CCOCC3)C2)n2nc(C)c(C)c2n1 (stereo unspecified) the result was Mtb glucose medium: 0.93%; Mtb cholesterol medium: 8.152% and -0.7747%.
For Nc1nc2c(c(N3CCN(C(=O)c4cccs4)CC3)n1)CCCC2 the result was Mtb glucose medium: 22.57%; Mtb cholesterol medium: -12.48%.
For Cc1cnn(CCCNC(=O)C2CCCCN2Cc2cccnc2)c1 (stereo unspecified) the result was Mtb glucose medium: 2.774%; Mtb cholesterol medium: 3.317%.
For CCN1CC2(CC1=O)CN(C(=O)c1ccsc1)CCN(C(=O)N(C)C)C2 (stereo unspecified) the result was Mtb glucose medium: 6.214%; Mtb cholesterol medium: 12.47%.
For COCCOC1CCN(C(=O)NCc2coc3ccccc23)CC1 the result was Mtb glucose medium: 2.108%; Mtb cholesterol medium: 17.71%.
For CC(=O)N1CCCN(C(C(=O)O)c2ccccc2OC(F)(F)F)CC1 (stereo unspecified) the result was Mtb glucose medium: -17.22%; Mtb cholesterol medium: -27.68%.
For O=C(O)C(F)(F)F.O=C(O)C(F)(F)F.[H][C@]12CO[C@H](CN(C)Cc3ccco3)[C@@]1([H])CCN(c1cccc(C)n1)C2 the result was Mtb glucose medium: -10.48%; Mtb cholesterol medium: -7.61%.
For Cc1csc(NC(=O)C2(C)CN(C)CCO2)n1 (stereo unspecified) the result was Mtb glucose medium: -36.58%; Mtb cholesterol medium: -22.57% and 1.768%.
For CSCC(=O)N1CCc2[nH]nc(-c3ccc4c(c3)OCO4)c2C1 the result was Mtb glucose medium: -16.72% and -5.544%; Mtb cholesterol medium: -9.005% and -6.01%.
For Cn1c(C2CC2)nc2c1CCN(CC(=O)NC1CCCCNC1=O)C2 (stereo unspecified) the result was Mtb glucose medium: 2.226% and 13.36%; Mtb cholesterol medium: 2.186%.
For COC(=O)CCC(=O)N(Cc1ccc2cc[nH]c2c1)C1CC1 the result was Mtb glucose medium: 20.1%; Mtb cholesterol medium: 1.115%.
For O=C(c1cnccn1)N1CCCC2(CCCN2Cc2cccnc2)C1 (stereo unspecified) the result was Mtb glucose medium: 28.48%; Mtb cholesterol medium: 3.913%.
For O=C(CCOc1ccc(F)cc1)N1CCCC1Cn1cccn1 (stereo unspecified) the result was Mtb glucose medium: 4.371%; Mtb cholesterol medium: 17.17%.
For Cc1ccc2cnn(CCC(=O)Nc3c(C)nn(C)c3C)c2c1 the result was Mtb glucose medium: 0.1852%; Mtb cholesterol medium: -19.33%.
For Cn1cc(CN2CCc3nc4sccc4c(=O)n3CC2)cn1 the result was Mtb glucose medium: 13.59%; Mtb cholesterol medium: 3.725% and -8.888%.
For Cc1cc(F)ccc1N1CCCC(NC2CCSCC2)C1=O (stereo unspecified) the result was Mtb glucose medium: -17.3%; Mtb cholesterol medium: 14.53%.
For CCC(CC)NC(=O)c1cncc(Br)c1 the result was Mtb glucose medium: 11.94%; Mtb cholesterol medium: -18.99%.

2 of the entries, repeated:

structure,Mtb glucose medium,Mtb cholesterol medium
COC(=O)CCC(=O)N(Cc1ccc2cc[nH]c2c1)C1CC1,20.1,1.115
Cc1ccc2cnn(CCC(=O)Nc3c(C)nn(C)c3C)c2c1,0.1852,-19.33